Experimental data: PubChem BioAssay AID602196 (INSERM, 2012)

Assay: 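Genes whose knock-down alters cisplatin killing of lung cancer cells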
System: human A549 lung cancer cells
Reagents: siRNA pair against human genes
Timing: 48 h transfection before cisplatin; time from cisplatin to read-out not stated
Treatment: cisplatin at a dose killing half of control-siRNA cells; exact dose and duration not given
Read-out: 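Shift in cisplatin death relative to control siRNA, from -50 (all cells die) to +50 (no cells die); siRNAs harmful on their own scored 0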
Scale: two-siRNA summed score (-2 to +2): higher = both siRNAs protect from cisplatin killing; -2 means both sensitise
Hit rule: 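Each siRNA scores 0 if harmful alone by LDH or WST-1, otherwise +1 if it reduces and -1 if it increases cisplatin killing; a gene is active when both siRNAs agree (sum +2 or -2)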
Meaning of the calls: active = both siRNAs shift cisplatin killing the same way; inactive = no consistent shift, or siRNA harmful alone
The deposit covers about 23,000 reagents; shown is an unselected part. 455 of them (2%) count as active. 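Active includes both protection and sensitisation; some change values fall well beyond the stated -50 to +50 range.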 Not all columns of the deposit are shown. Not given: the amount of reagent.

Target gene | two-siRNA summed score (-2 to +2) | Call
LOC392358 | 2 | active
MAPK4 | 0 | inactive
ZNF782 | -1 | inactive
CSF1 | 0 | inactive
BANF2 | 0 | inactive
KRT81 | 1 | inactive
NCOA2 | -2 | active
MTMR6 | 0 | inactive
ZNF468 | 0 | inactive
CTR9 | 0 | inactive
C1RL | 0 | inactive
WDR64 | 0 | inactive
LOC401029 | 0 | inactive
SYT1 | -1 | inactive
RNF10 | 0 | inactive
DOC2A | 1 | inactive
CCDC77 | 0 | inactive
RFX4 | 1 | inactive
LOC442469 | 0 | inactive
LINC00652 | 1 | inactive
ZNF285 | -1 | inactive
LOC57228 | 0 | inactive
YAF2 | 0 | inactive
DIP2B | 0 | inactive
ATP8B2 | 1 | inactive
PARM1 | 0 | inactive
OR2M5 | 1 | inactive
ATRN | 0 | inactive
SCN2A | 0 | inactive
EBAG9 | 0 | inactive
ZNF219 | 0 | inactive
LINC00467 | 0 | inactive
SNRPN | 0 | inactive
YWHAH | 1 | inactive
EDA | 0 | inactive
CGRRF1 | 0 | inactive
SNRPA1 | -1 | inactive
LOC392528 | 0 | inactive
FBLN7 | -1 | inactive
PADI6 | 1 | inactive
LOC441930 | 1 | inactive
TTLL1 | 0 | inactive
PALMD | 0 | inactive
NYNRIN | 0 | inactive
FKRP | 0 | inactive
ZFAND6 | 0 | inactive
ZEB2 | 0 | inactive
IL2RB | 0 | inactive
CDK12 | 0 | inactive
CST11 | 0 | inactive
VWA5A | 0 | inactive
LCE3E | 0 | inactive
METAP1 | -1 | inactive
NEIL2 | -1 | inactive
TMEM176A | -1 | inactive
WARS1 | 0 | inactive
MBTPS1 | 0 | inactive

Entries above with an active call (2):
Target gene | two-siRNA summed score (-2 to +2) | Call
LOC392358 | 2 | active
NCOA2 | -2 | active
